PubChem BioAssay AID540256 (National Center for Advancing Translational Sciences (NCATS), 2011)
Screen size: about 300,000 compounds; about 3,700 (1.2%) were called active. The shares of active, inactive and inconclusive entries below differ from those in the screen. Calls come from the whole dose curve; tested in HEK293 cells. Potencies beside an inconclusive call are fits to weak or partial responses and may not hold up.

Test: qHTS for Inhibitors of binding or entry into cells for Lassa Virus; note: nearly all actives have a fitted effect of over 50% in size
Settings: Lassa virus pseudotype entry inhibition, cell reporter; series mostly up to 37.9 µM
Potency is the fitted concentration of half-maximal effect.

SMILES	Potency
O=C(c1ccc(F)cc1)C1CCN(S(=O)(=O)c2ccccc2)CC1	inconclusive: 10 µM [inhibitor, partial curve, poor fit]
Cc1c(C(=O)N2CCc3ccccc32)cnn1C	inconclusive: 1.26 µM [inhibitor, single point]
CCOC(=O)c1cnc(-n2nc(C)cc2C)nc1Oc1ccc(C(=O)OC)cc1	inconclusive: 0.891 µM [activator, full curve, poor fit]
Cc1ccc2c(Cl)cc(Cl)c(OCC(=O)N3CCCC3)c2n1	inactive
COc1ccc(-n2cc3ccc([N+](=O)[O-])cc3n2)cc1	inconclusive: 3.55 µM [inhibitor, partial curve, poor fit]
CC(Oc1ccc(Cl)cc1)C(=O)NNC(=S)NC(=O)c1ccco1 (configuration not stated)	inconclusive: 8.91 µM [inhibitor, partial curve]
CN(c1ccccc1)S(=O)(=O)c1cccc(NC(=O)CN2CCCc3ccccc32)c1	inconclusive: 15.8 µM [inhibitor, partial curve, poor fit]
COc1ccccc1NC(=O)c1c(NCc2ccc(C)o2)sc2c1CCC(C)C2 (configuration not stated)	inactive
CCCSc1ncc(Cl)c(C(=O)N(Cc2ccc(N(C)C)cc2)C2CCS(=O)(=O)C2)n1 (configuration not stated)	inactive
Cc1cccc(-c2nsc(SCC(=O)c3ccc(Cl)cc3)n2)c1	inconclusive: 35.5 µM [activator, partial curve, poor fit]
CCOC(=O)C1(Cc2cccc(OC)c2)CCN(CCO)CC1	inactive
COc1ccc(NC(=O)CNc2ccc(C#N)cc2)cc1	inactive
COCCN(C(=O)COC(=O)c1cc2c(s1)CCC2)c1c(N)n(Cc2ccccc2)c(=O)[nH]c1=O	inactive
CC(=O)Nc1ccc(C2=NN(Cc3nnc(-c4ccccc4)o3)C(=O)SC2)cc1	inconclusive: 23.1 µM [inhibitor, single point]
O=C(CN1CCN(c2ccc(O)cc2)CC1)Nc1ccc(SC(F)F)cc1	inconclusive: 29.1 µM [inhibitor, single point]
CN1CCc2nc(SCC(=O)Nc3ccc(Cl)cc3)c(C#N)cc2C1	inactive
CN1CCN(c2oc(-c3ccc(COc4ccc(Cl)cc4)o3)nc2C#N)CC1	inconclusive: 22.4 µM [inhibitor, single point]
O=C(COc1ccc(Nc2ccccc2)cc1)Nc1ccncc1	inconclusive: 35.5 µM [inhibitor, single point]
CCOc1ccc(NCc2ccccc2OCc2cccc(F)c2)cc1	inconclusive: 28.2 µM [inhibitor, single point]
Brc1ccc(-c2cn3cccnc3n2)cc1	inconclusive: 14.6 µM [activator, partial curve, poor fit]
CCC(O)c1cc2c(cc1NC(=O)c1cccc(Br)c1)OCCO2 (configuration not stated)	inactive
CCCn1c(NC(=O)C2CCN(C(=O)c3ccccc3C)CC2)nc2ccccc21	inconclusive: 35.5 µM [inhibitor, single point]
Oc1c(CN2CCOCC2)ccc2ccccc12	inactive
COc1cccc(N=c2oc3ccccc3cc2-c2nc3ccccc3[nH]2)c1	inconclusive: 35.5 µM [inhibitor, single point]

SMILES	Potency
C[C@H]1CC2C3CCC4=CC(=O)C=C[C@]4(C)[C@@]3(Cl)[C@@H](O)C[C@]2(C)[C@@]1(O)C(=O)CO (some centres not stated)	inactive
O=C1CC(N2CCN(c3ccc(O)cc3)CC2)C(=O)N1Cc1cccs1 (configuration not stated)	inconclusive: 7.94 µM [inhibitor, partial curve, poor fit]
CCOC(=O)CCC(=O)NCc1ccc2[nH]c(C)cc2c1	inactive
CCOC(=O)c1c(C)nc2sc(C(=O)Nc3ccccc3)c(N)c2c1-c1ccc(OC)cc1	active: 8.91 µM
Cc1cccc2cc(-c3ccccc3)c(-c3ccccc3)c[n+]12	active: 11.2 µM
Cc1cccc(C2NC(=O)c3ccccc3N2)c1 (configuration not stated)	inactive
COC(CNC(=O)c1ccc2nc(-c3cccs3)c(-c3cccs3)nc2c1)OC	inconclusive: 3.55 µM [inhibitor, full curve]
O=C(Nc1ccn(Cc2ccccc2F)n1)c1ccc(COc2cc(Cl)ccc2Cl)o1	inconclusive: 29.1 µM [inhibitor, single point]
COc1ccc(-c2nn3ncccc3c2-c2ccnc(Nc3ccc4c(c3)OCCO4)n2)cc1	active: 15.8 µM
O=C(Cn1cc(C(=O)c2ccco2)c2ccccc21)NC1CCCCC1	inactive
CCOC(=O)c1ccc(NC(=O)COCc2cc(-c3ccc4c(c3)OCO4)on2)cc1	inconclusive: 25.1 µM [activator, single point]
CCOc1cc(N2CCOCC2)c(OCC)cc1NC(=O)c1c(-c2ccccc2Cl)noc1C	inconclusive: 7.08 µM [inhibitor, full curve, poor fit]
O=C(NCc1ccncc1)C(=O)Nc1nc(C23CC4CC(CC(C4)C2)C3)cs1	inconclusive: 32.6 µM [inhibitor, partial curve, poor fit]
CCN1CCCC1CN=Cc1c(O)n(-c2ccccc2)c(=O)c2ccccc12 (configuration not stated)	inactive
CCN(CC)S(=O)(=O)c1ccc(C(=O)Nc2nc3c(Cl)cc(Cl)cc3s2)cc1	inconclusive: 4.47 µM [inhibitor, single point]
Cc1ccc(NC(=O)/C(C#N)=C/c2cc(C)n(-c3ccc(N4CCOCC4)c([N+](=O)[O-])c3)c2C)c(C)c1	inconclusive: 4.47 µM [inhibitor, partial curve, poor fit]
N/C(Cc1nc2ccccc2s1)=N\O	inconclusive: 3.98 µM [inhibitor, single point]
CCOC(=O)c1cccc(NC(=O)c2cc(CN3CCOCC3)on2)c1	inactive
CN1c2ccccc2-c2nc3ccccc3n2C1c1ccncc1 (configuration not stated)	inconclusive: 14.1 µM [activator, partial curve, poor fit]
NNC(=O)[C@H]1C[C@@H]1c1ccccc1	inconclusive: 0.13 µM [inhibitor, full curve]
COc1ccc2nc(N3C(=O)CNC3=S)sc2c1	inactive
N#C/C(=C\c1ccccn1)c1nc2ccccc2s1	inactive
C=CC[n+]1ccc2ccccc2c1C	inactive
CN1CCN(c2nc(-c3cc4ccccc4o3)cs2)CC1	inconclusive: 25.9 µM [activator, single point]

SMILES	Potency
N#CC(C#N)=C1C=CC=CN1/C(=C\c1ccco1)C(=O)c1ccccc1	inconclusive: 35.5 µM [inhibitor, single point]
S=C(NCc1cccnc1)Nc1ccc2c(c1)OCO2	inactive
CN(c1ccc([N+](=O)[O-])cc1C(=O)Nc1ccccc1)C1CCCCC1	inconclusive: 32.6 µM [inhibitor, single point]
Cc1cccc(-c2ncc(CN3CCN(C4CCCC4)C(CCO)C3)cn2)c1 (configuration not stated)	inactive
CCOC(=O)c1ccc(N2C(=O)c3n[nH]c(C)c3C2c2ccc(C(C)(C)C)cc2)cc1 (configuration not stated)	inconclusive: 17.8 µM [activator, single point]
Fc1cccc(CN2CCN(C(=S)NCCc3ccccc3)CC2)c1	inactive
O=C(CSc1nnc(NC(=O)c2ccco2)s1)Nc1cccc(F)c1	inconclusive: 1.12 µM [inhibitor, full curve, poor fit]
Cc1nnc(SCC(=O)N/N=C/c2ccc(-c3ccc(C)c(Cl)c3)o2)s1	inconclusive: 28.2 µM [inhibitor, single point]
Cc1nc2ccc(S(=O)(=O)Nc3cccc(-c4nc5cccnc5s4)c3C)cc2s1	inactive
C(=NOCCc1ccccc1)c1cccnc1	inconclusive: 6.31 µM [activator, single point]
O=S(=O)(c1ccccc1)N1CCN=C1SCc1ccccc1	inactive
O=C(O)/C(=C\c1cccc(OCc2ccccc2)c1)c1ccc(F)cc1	inconclusive: 11.2 µM [inhibitor, partial curve, poor fit]
CC(C)c1ccc(OCC(=O)Nc2c(Cl)ccc3nsnc23)cc1	inconclusive: 11.2 µM [inhibitor, partial curve, poor fit]
COC(=O)c1c(NC(=O)CSc2ccccc2N)sc(C)c1C	inconclusive: 35.5 µM [inhibitor, single point]
CSC(=NC#N)N1CCN(c2ccc([N+](=O)[O-])cc2)CC1	inactive
O=S(=O)(c1ccccc1)c1nc(Nc2cccc(O)c2)sc1Cl	inconclusive: 4.47 µM [inhibitor, full curve]
O=C1CCC(c2ccccc2)N1c1ccccc1 (configuration not stated)	inconclusive: 6.31 µM [activator, partial curve, poor fit]
CCN1C/C(=C\c2cccc([N+](=O)[O-])c2)C(=O)/C(=C/c2cccc([N+](=O)[O-])c2)C1	active: 2.51 µM
Cc1cc(C)nc(NC(=O)C(C)N2C(=O)c3ccccc3C2=O)n1 (configuration not stated)	inactive
O=C(Nc1cc2c(oc1=O)CCCC2=O)c1ccc(Cl)cc1	inconclusive: 29.1 µM [activator, single point]
COc1ccc(N2CCN(C(=O)c3oc4ccccc4c3NC(=O)Cc3cccc(OC)c3)CC2)cc1	inconclusive: 3.55 µM [inhibitor, full curve]
COc1cccc(N/C(C)=C/C(=O)c2ccc(Br)cc2)c1	inconclusive: 2.51 µM [activator, partial curve]
CNC(=O)COC(=O)c1ccc(NC(=O)CC#N)cc1	inconclusive: 31.6 µM [activator, partial curve, poor fit]
C/C(=N\NC(=O)C1COc2ccccc2O1)c1ccccn1 (configuration not stated)	active: 11.2 µM
